Data taken from paper PMC11014671, “Small molecules that disrupt RAD54-BLM interaction hamper tumor proliferation in colon cancer chemoresistance models” (The Journal of Clinical Investigation, 2024).
No constants are given. Whether binding was seen depends on the method and setting. In cells and extracts the contact can be indirect. Some binding calls cover weakened binding; strength is not graded here. Sequences can lack the tags named with a protein.

Target: T1, pcDNA3.1 N-RAD54 (1-212) Rluc-F(1) (UniProt Q92698)
T1 sequence: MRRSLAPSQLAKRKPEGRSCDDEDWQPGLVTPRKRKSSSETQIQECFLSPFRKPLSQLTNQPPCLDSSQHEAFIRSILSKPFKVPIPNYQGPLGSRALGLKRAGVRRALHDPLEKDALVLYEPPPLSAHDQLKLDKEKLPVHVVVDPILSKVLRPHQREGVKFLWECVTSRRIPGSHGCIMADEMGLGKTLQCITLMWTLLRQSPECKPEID
Test: split reporter; Renilla luciferase protein complementation assay in HEK293T cells transfected with N-RAD54 F1 and BLM F2; 37 °C for 2 hours without or with small molecules (1nM to 100µM); Rluc activity after coelenterazine h

binding: binds
B1: pcDNA3.1 BLM (181-212) Rluc-F(2) (domain or fragment)
chain: STAQKSKKGKRNFFKAQLYTTNTVKTDLPPPS
